pIC50: −log10 of the molar value. Structures were worked out from names or drawings and are uncertain.
Target: recombinant human PDK1 (Homo sapiens, UniProt O15530)
Conditions: Table 10; compounds 97-132

By UniProt entry, the sequences of proteins in these tests, tags left out. Residues count along the entry.
UniProt O15530, 51-556 limits assumed: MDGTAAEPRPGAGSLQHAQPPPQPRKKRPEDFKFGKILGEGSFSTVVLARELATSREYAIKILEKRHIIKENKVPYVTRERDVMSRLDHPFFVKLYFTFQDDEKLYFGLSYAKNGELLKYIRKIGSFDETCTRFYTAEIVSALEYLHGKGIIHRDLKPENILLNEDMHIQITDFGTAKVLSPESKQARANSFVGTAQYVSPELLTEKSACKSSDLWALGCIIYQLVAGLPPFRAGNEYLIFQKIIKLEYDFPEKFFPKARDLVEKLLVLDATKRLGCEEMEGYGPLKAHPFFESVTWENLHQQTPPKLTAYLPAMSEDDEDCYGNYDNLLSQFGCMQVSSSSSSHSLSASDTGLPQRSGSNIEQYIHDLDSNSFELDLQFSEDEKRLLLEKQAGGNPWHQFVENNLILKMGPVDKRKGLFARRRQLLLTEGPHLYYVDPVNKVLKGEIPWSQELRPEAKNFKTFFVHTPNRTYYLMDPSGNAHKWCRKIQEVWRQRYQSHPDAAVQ

Structure (SMILES): CNc1nc(-c2c[nH]c(C(=O)Nc3cccc(F)c3N3CCC(CN)CC3)n2)cc(N2C[C@@H](C(=O)NC3CCCCC3)CC[C@H]2C)n1 (relative stereo)
- pIC50: 7.30 to 9.00

Source: patent US8623857B2, “N-phenyl imidazole carboxamide inhibitors of 3-phosphoinositide-dependent protein kinase-1” (Merck Sharp & Dohme Corp., priority 2010, dated 2014)
